Assay: Penetration of apigenin, ibuprofen and thymol into extracted teeth (Example 31)
Settings: teeth soaked 24 hours

O=c1cc(-c2ccc(O)cc2)oc2cc(O)cc(O)c12 [APIG, apigenin]
APIG Final amount: 750 µg
APIG HPLC Results (25 mL methanol extract): 30.0 µg/mL

CC(C)Cc1ccc(C(C)C(=O)O)cc1 (stereo not drawn) [IBP, ibuprofen, reference compound]
IBP Final amount: 5100 µg
IBP HPLC Results (25 mL methanol extract): 204.0 µg/mL

Cc1ccc(C(C)C)c(O)c1 [THY, thymol]
THY Final amount: 2252.5 µg
THY HPLC Results (25 mL methanol extract): 90.1 µg/mL
